Results from article doi:10.1101/2021.05.01.442081.
Results are given in words; binding and its absence hold for the method and conditions named. Binding seen in cells or lysates may run through a third protein. Some entries that bind do so weakly or less than the wild type. For some assays here: Sequences can lack the tags named with a protein.

Chains of the proteins cited; added tags and fusions are not shown.
UniProt Q9EQQ0: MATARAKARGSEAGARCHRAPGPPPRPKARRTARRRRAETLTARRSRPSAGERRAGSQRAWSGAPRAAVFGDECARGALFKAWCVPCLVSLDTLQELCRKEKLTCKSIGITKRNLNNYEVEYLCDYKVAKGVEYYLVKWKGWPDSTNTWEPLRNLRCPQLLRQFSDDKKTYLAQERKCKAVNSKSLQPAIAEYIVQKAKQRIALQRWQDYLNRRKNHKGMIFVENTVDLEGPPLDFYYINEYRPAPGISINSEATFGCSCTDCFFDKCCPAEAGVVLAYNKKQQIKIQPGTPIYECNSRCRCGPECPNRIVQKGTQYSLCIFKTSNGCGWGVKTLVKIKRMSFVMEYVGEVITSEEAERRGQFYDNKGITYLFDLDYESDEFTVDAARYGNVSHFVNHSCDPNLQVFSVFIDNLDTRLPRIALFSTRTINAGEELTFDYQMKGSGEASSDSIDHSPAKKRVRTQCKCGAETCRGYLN

How the values were obtained:
GFP-SUV39H2 = GFP-SUV39H2 (UniProt Q9EQQ0); assay: co-IP
GFP-SUV39H1 = target: T1, GFP-SUV39H1 (UniProt O54864); assay: co-IP
T1 sequence: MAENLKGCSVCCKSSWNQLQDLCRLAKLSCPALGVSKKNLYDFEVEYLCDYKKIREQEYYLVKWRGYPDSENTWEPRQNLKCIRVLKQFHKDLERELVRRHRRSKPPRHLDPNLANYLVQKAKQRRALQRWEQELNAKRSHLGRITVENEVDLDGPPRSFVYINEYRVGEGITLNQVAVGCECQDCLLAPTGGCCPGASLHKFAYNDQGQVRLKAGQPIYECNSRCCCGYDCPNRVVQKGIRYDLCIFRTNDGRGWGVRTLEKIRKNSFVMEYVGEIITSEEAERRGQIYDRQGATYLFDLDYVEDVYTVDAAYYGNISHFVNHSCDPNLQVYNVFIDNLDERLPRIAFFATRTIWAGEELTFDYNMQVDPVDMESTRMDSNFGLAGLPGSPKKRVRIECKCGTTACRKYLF

binding (GFP-SUV39H2): binds
binding (GFP-SUV39H1): binds
B1: FOXD3 (endogenous, in Suv39h dn mouse embryonic stem cells) (protein, UniProt Q61060 1-465)
chain: MTLSGSGSASDMSGQTVLTAEDVDIDVVGEGDDGLEEKDSDAGCDSPAGPPDLRLDEADEGPPVSAHHGQSQPQALALPTEATGPGNDTGAPEADGCKGGEDAVTGGGGPGAGSGATGGLTPNKPKNSLVKPPYSYIALITMAILQSPQKKLTLSGICEFISNRFPYYREKFPAWQNSIRHNLSLNDCFVKIPREPGNPGKGNYWTLDPQSEDMFDNGSFLRRRKRFKRHQQEHLREQTALMMQSFGAYSLAAAAGAGPYGLHPAAAAGAYSHPAAAAAAAAAAALQYPYALPPVAPVLPPAVPLLPSGELGRKAAAFGSQLGPSLQLQLNTLGAAAAAAGTAGAAGTTSLIKSEPSARPSFSIENIIGAGSAAPGGSAGGGGSGGGAGGGGGSGGGGGAQSFLRPPGTVQSAALMATHQPLSLSRTTATIAPILSVPLSGQFLQPAASAAAAAAAAVQAKWPAQ
